Literature values in US20220387342A1, “TRANSDERMAL PATCH” (University of Sunderland, priority 2019, published 2022).
Where a name gives a salt, the structure may show the parent alone.

Conditions: hydrochloride; cited from earlier work

## O=C1CC[C@@]2(O)[C@H]3Cc4ccc(O)c5c4[C@@]2(CCN3CC2CC2)[C@H]1O5 [naltrexone hydrochloride]
  aqueous solubility: 90 mg/mL
